From patent US20140193432A1
Substitutions are numbered along the chain they refer to. Names and notes keep the numbering of the source. These are yes or no findings as the source states them, for the method shown. Some entries that bind do so weakly or less than the wild type.

By UniProt entry, the sequences of proteins in these tests, tags left out. Where a name states a change or a piece, a line headed by the entry shows the natural chain unless it says otherwise.
UniProt P80370: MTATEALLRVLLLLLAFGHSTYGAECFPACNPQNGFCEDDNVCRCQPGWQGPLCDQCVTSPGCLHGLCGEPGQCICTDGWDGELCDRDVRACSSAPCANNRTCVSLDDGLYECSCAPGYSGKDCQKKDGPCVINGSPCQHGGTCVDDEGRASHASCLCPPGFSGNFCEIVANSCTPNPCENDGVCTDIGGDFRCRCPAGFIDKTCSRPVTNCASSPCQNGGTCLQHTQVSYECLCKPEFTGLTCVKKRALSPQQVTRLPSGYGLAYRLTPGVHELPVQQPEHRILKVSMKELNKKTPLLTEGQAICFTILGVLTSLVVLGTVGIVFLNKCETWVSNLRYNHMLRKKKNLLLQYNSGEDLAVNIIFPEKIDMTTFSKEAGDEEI

B1: humanized BA-1-3D IgG1/κ antibody (HuBA-1-3D-1) (antibody, V domains shown)
VH: QVQLVQSGAEVKKPGASVKVSCKASGYTFTDYAMHWVRQAPGQGLEWIGVISTYYGNTNYNQKFKGKATMTVDTSTSTAYMELRSLRSDDTAVYYCARGGLREYYYAMDYWGQGTMVTVSS
VL: DIVMTQSPDSLAVSLGERATINCKSSQSLLNSSNQKNYLAWYQQKPGQPPKLLVYFASTRESGVPDRFSGSGSGTDFTLTISSLQAEDVAVYYCQQHYSTPPTFGQGTKLEIKR
B2: humanized BA-1-3D IgG1/κ antibody (HuBA-1-3D-2) (antibody, V domains shown)
VH: B1 VH with K67R
VL: B1 VL
B3: HuBA-1-3D-1-T73K (antibody, human IgG1, kappa, V domains shown)
VH: B1 VH with T74K
VL: B1 VL
B4: HuBA-1-3D-1-A24G (antibody, human IgG1, V domains shown)
VH: B1 VH with A24G
VL: DIVMTQSPDSLAVSLGERATINCKSSQSLLNSSNQKNYLAWYQQKPGQPPKLLVYFASTRESGVPDRFSGSGSGTDFTLTISSLQAEDVAVYYCQQHYSTPPTFGQGTKLEIK
B5: HuBA-1-3D-1-A24G/T73K (antibody, human IgG1, kappa, V domains shown)
VH: B1 VH with A24G, T74K
VL: B1 VL

Columns and labels:
[1] = target: recombinant protein of the hDlk-1 extracellular region (hDlk-1-His) (human) (UniProt P80370); experiment: ELISA third format: hDlk-1-His coated at 0.05 µg/ml, purified antibodies
[2] = target: recombinant protein of the hDlk-1 extracellular region (hDlk-1-His) (human) (UniProt P80370); experiment: summary of the three ELISA formats
[3] = target: recombinant protein of the hDlk-1 extracellular region (hDlk-1-His) (human) (UniProt P80370); experiment: ELISA first format: antibody coated at 1 µg/ml, hDlk-1-His titrated from 1 µg/ml, anti-His-HRP detection (monovalent)
[4] = target: recombinant protein of the hDlk-1 extracellular region (hDlk-1-His) (human) (UniProt P80370); experiment: ELISA third format: hDlk-1-His coated at 0.05 µg/ml, antibody titrated from 5 µg/ml
[5] = target: recombinant protein of the hDlk-1 extracellular region (hDlk-1-His) (human) (UniProt P80370); experiment: ELISA third format: hDlk-1-His coated at 0.05 µg/ml, HEK293 culture supernatants
[6] = target: recombinant protein of the hDlk-1 extracellular region (hDlk-1-His) (human) (UniProt P80370); experiment: antigen-immobilized ELISA, hDlk-1-His coated at 3 µg/ml, antibody at 0.1 µg/ml after incubation in cynomolgus monkey plasma at 37° C.
[7] = target: recombinant protein of the hDlk-1 extracellular region (hDlk-1-His) (human) (UniProt P80370); experiment: antigen-immobilized ELISA, hDlk-1-His coated at 3 µg/ml, antibody at 0.001 to 1 µg/ml

| Binder | binding [1] | binding [2] | binding [3] | binding [4] | binding [5] | binding [6] | binding [7] |
| --- | --- | --- | --- | --- | --- | --- | --- |
| B1 | binds | binds | binds | binds |  |  |  |
| B2 |  | binds | binds | binds | binds |  |  |
| B3 | binds |  |  |  | binds |  |  |
| B4 |  |  |  |  | binds |  |  |
| B5 |  |  |  |  | binds | binds | binds |
